No constants are given. Whether binding was seen depends on the method and setting. In cells and extracts the contact can be indirect. Binding can be weak; no strength is given.

The chains behind the UniProt entries cited, without tags or fusion partners. Where a name states a change or a piece, a line headed by the entry shows the natural chain unless it says otherwise.
UniProt Q96A61: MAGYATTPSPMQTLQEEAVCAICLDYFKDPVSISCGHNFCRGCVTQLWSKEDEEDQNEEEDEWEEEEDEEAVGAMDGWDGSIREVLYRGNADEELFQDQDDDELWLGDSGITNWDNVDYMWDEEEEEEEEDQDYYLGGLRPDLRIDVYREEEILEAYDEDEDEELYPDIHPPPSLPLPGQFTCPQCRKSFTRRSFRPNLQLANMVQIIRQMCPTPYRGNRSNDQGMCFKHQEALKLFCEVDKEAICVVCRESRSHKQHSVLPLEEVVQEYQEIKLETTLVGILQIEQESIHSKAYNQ
UniProt Q9NR09: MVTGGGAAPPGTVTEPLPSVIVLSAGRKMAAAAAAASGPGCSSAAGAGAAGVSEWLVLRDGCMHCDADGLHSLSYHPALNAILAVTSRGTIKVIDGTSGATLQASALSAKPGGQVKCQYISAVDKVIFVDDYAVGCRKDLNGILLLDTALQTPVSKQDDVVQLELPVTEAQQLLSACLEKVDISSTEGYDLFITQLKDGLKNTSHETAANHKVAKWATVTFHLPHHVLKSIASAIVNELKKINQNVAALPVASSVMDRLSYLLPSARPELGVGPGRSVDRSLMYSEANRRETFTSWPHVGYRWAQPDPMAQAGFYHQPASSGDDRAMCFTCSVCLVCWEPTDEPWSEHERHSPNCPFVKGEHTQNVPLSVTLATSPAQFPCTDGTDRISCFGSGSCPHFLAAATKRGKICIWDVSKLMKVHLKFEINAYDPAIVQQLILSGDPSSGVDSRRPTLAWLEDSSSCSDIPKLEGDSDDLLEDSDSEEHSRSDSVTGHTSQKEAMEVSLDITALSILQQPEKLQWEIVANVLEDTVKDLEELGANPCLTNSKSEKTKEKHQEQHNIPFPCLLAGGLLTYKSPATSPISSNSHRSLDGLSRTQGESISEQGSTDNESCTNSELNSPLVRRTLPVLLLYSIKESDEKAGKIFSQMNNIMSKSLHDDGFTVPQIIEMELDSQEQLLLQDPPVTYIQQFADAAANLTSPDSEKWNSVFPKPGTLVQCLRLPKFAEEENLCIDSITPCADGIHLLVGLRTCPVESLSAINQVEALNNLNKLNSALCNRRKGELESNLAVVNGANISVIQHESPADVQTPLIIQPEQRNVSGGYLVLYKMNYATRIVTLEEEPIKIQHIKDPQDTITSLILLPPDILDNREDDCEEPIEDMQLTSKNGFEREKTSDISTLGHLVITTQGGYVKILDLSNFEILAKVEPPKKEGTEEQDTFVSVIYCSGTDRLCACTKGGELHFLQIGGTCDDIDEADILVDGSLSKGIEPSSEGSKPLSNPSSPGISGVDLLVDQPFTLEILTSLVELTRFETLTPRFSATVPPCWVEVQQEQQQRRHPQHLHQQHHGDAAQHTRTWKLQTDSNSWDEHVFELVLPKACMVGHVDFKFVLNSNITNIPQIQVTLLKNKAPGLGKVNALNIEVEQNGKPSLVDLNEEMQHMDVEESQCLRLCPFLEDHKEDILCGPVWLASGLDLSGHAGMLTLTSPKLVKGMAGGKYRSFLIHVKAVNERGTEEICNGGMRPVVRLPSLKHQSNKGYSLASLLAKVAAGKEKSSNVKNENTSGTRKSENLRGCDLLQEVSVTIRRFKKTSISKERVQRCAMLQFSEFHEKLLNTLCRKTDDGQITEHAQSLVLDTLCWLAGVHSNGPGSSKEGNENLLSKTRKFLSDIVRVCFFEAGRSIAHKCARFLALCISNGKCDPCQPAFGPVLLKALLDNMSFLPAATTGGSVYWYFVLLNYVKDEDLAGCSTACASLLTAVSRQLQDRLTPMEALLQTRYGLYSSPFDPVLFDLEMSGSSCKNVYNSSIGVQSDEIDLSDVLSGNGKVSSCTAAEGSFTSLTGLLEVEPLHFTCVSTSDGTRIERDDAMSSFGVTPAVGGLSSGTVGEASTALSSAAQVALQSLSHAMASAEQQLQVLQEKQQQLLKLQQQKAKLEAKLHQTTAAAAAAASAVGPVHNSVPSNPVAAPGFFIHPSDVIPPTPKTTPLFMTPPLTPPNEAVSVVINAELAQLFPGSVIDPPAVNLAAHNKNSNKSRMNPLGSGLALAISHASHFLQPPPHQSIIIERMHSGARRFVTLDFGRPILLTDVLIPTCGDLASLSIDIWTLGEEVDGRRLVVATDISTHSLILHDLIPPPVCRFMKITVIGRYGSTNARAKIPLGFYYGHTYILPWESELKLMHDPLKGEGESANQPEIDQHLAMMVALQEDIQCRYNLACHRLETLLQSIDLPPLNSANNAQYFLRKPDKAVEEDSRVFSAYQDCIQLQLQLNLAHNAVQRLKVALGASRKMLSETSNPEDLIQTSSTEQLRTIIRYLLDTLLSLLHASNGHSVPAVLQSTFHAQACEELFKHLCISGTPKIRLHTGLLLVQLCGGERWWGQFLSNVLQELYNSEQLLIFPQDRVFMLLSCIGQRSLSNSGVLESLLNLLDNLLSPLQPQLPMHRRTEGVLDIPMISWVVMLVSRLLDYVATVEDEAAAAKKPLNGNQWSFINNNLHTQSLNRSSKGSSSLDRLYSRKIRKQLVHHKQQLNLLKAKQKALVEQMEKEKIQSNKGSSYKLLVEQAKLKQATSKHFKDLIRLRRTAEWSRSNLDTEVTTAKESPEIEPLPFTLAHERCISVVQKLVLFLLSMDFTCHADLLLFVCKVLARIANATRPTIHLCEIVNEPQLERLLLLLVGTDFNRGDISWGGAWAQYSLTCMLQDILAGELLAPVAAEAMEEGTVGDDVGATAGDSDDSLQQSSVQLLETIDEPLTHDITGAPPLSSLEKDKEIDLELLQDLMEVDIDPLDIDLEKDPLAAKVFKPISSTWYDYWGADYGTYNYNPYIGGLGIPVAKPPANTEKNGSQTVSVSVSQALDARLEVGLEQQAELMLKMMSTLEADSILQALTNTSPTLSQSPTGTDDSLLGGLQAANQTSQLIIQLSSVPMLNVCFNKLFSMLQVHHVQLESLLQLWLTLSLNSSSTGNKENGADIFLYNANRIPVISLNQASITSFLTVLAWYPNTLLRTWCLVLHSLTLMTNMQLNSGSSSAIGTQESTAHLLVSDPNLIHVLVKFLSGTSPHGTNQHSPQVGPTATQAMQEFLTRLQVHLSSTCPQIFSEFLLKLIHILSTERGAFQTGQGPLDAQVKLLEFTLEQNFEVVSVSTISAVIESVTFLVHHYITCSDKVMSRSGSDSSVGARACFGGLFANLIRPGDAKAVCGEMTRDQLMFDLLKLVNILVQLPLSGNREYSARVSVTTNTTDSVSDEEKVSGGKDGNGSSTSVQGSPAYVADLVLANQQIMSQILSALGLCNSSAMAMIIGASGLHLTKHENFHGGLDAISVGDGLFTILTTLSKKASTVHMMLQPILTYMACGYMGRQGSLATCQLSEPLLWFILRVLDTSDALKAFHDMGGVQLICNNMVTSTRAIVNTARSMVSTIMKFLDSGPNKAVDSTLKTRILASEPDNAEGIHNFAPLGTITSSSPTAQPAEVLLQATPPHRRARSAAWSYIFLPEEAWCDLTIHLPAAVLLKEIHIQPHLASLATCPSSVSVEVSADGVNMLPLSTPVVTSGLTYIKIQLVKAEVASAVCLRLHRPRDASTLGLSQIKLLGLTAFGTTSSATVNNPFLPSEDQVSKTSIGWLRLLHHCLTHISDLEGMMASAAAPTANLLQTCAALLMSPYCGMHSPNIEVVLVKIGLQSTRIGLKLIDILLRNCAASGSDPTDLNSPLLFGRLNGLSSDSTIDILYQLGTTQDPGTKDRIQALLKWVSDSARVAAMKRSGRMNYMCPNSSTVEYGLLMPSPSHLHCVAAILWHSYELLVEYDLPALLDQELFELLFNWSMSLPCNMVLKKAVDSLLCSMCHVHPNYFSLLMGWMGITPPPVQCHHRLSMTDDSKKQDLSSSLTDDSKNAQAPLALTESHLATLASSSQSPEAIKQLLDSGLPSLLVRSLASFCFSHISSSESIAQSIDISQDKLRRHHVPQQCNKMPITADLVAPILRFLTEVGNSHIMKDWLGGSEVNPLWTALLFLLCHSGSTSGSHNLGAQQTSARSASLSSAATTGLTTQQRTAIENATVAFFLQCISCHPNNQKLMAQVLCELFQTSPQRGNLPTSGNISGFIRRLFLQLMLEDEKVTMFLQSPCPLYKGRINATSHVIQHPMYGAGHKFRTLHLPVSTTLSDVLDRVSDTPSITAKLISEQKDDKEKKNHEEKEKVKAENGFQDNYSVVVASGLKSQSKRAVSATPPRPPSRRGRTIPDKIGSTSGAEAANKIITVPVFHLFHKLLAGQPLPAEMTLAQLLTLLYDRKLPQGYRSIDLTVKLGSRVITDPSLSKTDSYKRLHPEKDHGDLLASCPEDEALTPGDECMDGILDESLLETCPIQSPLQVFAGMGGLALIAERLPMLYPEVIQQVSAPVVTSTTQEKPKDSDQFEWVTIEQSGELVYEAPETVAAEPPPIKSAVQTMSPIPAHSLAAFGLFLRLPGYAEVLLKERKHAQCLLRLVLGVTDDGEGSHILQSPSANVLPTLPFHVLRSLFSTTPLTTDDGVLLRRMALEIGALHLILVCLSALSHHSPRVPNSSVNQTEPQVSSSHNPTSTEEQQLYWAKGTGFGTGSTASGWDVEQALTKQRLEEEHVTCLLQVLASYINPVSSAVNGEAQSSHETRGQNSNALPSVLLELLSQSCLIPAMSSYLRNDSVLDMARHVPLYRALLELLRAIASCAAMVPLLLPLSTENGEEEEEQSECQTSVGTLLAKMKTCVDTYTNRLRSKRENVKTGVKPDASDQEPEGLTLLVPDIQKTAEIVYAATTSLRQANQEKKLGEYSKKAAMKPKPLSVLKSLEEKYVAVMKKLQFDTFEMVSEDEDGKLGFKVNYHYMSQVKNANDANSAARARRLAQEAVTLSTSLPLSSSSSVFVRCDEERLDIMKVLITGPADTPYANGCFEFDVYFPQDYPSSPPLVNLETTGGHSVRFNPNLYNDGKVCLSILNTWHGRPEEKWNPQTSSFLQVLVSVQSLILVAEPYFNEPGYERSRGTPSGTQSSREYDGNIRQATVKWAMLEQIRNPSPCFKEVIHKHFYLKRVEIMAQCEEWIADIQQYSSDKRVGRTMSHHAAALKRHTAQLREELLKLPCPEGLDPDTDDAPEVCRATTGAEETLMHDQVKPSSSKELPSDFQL

The experiment has as its target 3xHA-tagged TRIM52 (ΔLoop2) (human) (UniProt Q96A61). Put plainly: co-IP; HEK-293T cells expressing 3xHA-tagged TRIM52 or ΔLoop2, treated with epoxomicin for 5 h; Frackelton lysis buffer (50 mM NaCl, 1% Triton X-100); anti-HA antibody and Protein A/G magnetic beads, 4 °C; WB for endogenous E3 ligases.

As for “BIRC6 (endogenous) (from UniProt Q9NR09 1-4857) (enzyme)”, the binding entry is recorded as “binds”.

(Values after PMC12022042.)
